Source: the supplement of paper PMC12819154, “High-throughput peptide-centric local stability assay extends protein–ligand identification to membrane proteins, tissues and bacteria” (Nature Structural & Molecular Biology, 2025)
This is one part of the list. Most entries show no effect beyond the scatter of the controls.

By UniProt entry, the sequences of proteins in these tests, tags left out. Where a name states a change or a piece, a line headed by the entry shows the natural chain unless it says otherwise.
UniProt O09131: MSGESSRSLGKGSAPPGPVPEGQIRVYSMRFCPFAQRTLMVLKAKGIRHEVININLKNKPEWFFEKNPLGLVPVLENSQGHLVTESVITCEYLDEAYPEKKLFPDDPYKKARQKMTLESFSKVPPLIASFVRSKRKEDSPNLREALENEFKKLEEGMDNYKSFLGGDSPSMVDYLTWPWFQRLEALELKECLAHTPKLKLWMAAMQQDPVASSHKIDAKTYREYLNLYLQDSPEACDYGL
UniProt O08582: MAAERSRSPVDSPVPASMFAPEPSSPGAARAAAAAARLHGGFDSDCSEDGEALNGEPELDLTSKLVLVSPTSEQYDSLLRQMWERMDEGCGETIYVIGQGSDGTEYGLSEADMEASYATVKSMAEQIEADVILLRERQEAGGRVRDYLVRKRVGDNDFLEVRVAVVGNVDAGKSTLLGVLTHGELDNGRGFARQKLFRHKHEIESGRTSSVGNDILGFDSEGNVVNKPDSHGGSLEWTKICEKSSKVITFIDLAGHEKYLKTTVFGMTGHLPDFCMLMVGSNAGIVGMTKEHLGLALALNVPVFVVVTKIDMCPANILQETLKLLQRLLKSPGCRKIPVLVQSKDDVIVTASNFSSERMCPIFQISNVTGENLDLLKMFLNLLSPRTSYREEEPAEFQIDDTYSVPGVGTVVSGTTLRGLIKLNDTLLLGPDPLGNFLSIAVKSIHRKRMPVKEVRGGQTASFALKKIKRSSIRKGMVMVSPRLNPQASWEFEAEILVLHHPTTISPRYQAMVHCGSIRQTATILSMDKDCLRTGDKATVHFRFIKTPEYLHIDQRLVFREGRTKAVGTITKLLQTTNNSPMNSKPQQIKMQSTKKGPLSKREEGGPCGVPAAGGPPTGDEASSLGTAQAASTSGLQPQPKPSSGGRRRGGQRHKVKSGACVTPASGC
UniProt O35400: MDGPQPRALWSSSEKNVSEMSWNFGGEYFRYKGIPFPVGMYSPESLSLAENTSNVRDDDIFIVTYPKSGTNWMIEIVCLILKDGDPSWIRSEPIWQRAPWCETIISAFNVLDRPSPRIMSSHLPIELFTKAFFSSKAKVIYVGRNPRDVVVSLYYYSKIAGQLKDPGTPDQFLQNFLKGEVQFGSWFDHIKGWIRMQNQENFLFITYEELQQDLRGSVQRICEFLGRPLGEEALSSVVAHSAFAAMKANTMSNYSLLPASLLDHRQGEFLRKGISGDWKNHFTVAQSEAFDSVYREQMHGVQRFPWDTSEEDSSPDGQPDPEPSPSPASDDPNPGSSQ
UniProt O08967: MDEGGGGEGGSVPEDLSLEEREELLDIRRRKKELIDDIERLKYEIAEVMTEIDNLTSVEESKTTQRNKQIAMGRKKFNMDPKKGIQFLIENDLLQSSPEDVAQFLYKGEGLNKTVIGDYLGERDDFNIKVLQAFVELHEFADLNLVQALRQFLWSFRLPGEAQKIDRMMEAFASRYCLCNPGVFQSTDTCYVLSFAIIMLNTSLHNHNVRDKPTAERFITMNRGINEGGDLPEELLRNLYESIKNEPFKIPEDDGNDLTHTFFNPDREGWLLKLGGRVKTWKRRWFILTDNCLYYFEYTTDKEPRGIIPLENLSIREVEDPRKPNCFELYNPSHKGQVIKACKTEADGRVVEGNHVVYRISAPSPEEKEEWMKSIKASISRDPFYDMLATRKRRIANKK
UniProt O08663: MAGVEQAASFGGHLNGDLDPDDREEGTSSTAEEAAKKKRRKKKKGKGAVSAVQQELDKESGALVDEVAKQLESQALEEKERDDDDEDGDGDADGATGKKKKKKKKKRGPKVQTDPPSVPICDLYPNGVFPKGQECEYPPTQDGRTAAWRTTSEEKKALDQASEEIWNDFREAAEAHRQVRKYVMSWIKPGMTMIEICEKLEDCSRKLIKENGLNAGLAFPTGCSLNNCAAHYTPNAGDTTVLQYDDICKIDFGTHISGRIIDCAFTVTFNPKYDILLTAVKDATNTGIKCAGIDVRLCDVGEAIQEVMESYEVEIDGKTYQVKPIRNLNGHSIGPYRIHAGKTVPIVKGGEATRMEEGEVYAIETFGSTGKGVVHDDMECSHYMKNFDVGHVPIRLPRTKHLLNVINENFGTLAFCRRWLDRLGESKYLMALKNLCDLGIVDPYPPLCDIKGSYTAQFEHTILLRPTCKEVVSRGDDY
UniProt E9PVA8, whole entry: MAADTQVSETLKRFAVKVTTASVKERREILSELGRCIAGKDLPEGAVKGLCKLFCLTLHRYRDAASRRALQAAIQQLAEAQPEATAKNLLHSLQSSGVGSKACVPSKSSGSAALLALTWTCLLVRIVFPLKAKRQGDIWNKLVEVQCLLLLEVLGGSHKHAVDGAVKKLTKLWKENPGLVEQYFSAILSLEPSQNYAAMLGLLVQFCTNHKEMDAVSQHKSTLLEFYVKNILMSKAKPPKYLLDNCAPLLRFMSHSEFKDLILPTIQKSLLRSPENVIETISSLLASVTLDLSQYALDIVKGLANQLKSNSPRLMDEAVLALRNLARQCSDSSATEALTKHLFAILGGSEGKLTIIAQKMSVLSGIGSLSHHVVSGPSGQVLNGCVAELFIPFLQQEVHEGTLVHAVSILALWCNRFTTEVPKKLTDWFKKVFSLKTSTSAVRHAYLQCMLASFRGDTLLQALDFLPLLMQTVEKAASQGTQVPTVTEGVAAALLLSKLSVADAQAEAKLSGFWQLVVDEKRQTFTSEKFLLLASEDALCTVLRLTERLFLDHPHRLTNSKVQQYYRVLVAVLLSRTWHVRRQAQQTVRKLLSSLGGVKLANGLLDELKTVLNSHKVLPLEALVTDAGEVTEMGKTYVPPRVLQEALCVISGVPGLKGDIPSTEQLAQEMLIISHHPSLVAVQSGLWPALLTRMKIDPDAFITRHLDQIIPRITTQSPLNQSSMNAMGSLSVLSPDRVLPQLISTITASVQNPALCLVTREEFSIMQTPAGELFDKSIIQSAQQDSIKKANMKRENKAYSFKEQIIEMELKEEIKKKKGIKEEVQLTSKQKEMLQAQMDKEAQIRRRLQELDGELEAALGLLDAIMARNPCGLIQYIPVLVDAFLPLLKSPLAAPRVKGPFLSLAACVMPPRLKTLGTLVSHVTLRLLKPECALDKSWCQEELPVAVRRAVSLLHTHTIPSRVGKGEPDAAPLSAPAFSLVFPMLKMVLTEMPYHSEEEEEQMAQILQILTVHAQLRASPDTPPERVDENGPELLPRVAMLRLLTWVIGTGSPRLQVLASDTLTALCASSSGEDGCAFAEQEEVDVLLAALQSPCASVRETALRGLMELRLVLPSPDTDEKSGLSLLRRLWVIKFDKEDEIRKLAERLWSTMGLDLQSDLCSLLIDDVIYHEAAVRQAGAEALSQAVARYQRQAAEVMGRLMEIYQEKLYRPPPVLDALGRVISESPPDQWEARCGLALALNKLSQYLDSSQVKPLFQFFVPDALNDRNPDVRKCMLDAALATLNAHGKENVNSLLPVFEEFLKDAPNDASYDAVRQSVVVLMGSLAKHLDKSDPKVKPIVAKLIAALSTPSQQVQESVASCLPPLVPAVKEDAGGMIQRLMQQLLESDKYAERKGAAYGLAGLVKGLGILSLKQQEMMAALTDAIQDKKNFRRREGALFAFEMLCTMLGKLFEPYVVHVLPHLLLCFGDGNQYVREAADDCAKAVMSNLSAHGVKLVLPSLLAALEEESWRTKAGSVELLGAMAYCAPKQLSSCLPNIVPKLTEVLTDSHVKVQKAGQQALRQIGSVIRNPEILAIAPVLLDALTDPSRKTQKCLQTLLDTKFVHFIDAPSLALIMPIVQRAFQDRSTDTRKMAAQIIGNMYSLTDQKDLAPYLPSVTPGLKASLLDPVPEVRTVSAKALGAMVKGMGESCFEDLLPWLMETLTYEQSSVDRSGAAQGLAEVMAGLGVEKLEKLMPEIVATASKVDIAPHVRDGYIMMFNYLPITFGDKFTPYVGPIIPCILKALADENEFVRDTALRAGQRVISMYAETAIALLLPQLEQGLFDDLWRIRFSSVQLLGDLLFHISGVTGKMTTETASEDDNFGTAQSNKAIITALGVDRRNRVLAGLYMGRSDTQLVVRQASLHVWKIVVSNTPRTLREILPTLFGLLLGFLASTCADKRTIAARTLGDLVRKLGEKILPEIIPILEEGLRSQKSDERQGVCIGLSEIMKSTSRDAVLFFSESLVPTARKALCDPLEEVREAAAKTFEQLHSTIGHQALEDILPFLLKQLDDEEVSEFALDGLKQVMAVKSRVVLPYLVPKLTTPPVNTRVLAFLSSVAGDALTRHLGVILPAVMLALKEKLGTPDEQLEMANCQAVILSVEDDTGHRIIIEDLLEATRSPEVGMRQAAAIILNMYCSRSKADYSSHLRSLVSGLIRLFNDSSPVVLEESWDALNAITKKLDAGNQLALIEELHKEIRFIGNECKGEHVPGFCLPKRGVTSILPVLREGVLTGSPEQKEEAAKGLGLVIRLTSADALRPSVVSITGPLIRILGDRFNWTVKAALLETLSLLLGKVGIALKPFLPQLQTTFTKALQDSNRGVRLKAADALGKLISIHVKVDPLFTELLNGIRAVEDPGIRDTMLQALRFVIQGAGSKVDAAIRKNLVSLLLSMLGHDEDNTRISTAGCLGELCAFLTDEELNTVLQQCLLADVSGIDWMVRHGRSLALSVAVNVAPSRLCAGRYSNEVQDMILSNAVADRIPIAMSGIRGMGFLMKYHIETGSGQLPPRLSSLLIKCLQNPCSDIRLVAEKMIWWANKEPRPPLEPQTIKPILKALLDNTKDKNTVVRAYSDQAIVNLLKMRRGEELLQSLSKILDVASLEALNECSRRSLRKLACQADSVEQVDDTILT
UniProt O35153: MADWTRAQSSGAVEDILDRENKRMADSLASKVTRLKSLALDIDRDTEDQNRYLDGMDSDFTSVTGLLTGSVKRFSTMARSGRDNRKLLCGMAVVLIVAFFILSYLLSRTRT
UniProt B2RVL6: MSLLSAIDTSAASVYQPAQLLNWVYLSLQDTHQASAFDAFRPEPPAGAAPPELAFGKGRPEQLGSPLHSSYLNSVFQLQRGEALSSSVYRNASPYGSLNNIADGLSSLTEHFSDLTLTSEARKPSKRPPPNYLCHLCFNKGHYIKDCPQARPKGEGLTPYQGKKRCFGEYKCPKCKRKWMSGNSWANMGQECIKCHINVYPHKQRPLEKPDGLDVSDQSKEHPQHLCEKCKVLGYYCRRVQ
UniProt O35215: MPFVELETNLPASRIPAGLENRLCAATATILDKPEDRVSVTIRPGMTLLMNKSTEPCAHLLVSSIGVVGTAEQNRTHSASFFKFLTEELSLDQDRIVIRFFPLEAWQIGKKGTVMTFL
UniProt O08784: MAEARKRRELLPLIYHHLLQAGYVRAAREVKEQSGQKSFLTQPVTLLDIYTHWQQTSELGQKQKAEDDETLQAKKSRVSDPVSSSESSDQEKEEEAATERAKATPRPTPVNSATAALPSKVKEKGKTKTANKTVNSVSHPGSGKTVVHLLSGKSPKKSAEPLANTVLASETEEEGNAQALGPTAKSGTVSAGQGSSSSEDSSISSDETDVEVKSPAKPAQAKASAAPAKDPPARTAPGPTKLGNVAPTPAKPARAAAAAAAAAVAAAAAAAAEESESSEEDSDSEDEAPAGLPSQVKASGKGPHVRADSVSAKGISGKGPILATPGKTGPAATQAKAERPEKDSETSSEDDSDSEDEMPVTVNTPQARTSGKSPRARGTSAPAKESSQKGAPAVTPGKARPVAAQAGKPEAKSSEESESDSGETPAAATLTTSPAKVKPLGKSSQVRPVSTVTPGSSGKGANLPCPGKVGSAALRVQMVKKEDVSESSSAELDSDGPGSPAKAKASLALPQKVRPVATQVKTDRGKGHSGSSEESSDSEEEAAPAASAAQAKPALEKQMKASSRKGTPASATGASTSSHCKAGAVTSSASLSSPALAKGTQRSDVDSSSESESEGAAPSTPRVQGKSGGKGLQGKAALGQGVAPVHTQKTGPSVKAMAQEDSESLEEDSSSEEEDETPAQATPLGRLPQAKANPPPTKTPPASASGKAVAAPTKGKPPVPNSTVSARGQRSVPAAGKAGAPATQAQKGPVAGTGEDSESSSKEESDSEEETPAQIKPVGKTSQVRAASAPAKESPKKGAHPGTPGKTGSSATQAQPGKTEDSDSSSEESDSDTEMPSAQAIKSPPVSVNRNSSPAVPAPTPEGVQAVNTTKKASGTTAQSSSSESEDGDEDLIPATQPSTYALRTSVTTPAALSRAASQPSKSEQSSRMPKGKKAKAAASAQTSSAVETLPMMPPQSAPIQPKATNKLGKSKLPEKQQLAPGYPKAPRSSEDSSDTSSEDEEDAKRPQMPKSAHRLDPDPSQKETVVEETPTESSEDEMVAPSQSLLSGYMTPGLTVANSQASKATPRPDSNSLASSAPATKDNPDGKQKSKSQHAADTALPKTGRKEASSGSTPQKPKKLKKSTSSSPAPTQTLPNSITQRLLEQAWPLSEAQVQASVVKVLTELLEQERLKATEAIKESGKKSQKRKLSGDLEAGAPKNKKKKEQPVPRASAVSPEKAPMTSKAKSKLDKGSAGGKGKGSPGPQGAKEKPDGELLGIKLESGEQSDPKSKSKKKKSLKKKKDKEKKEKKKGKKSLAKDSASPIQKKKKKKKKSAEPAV

These targets were tested with CN[C@@H]1C[C@H]2O[C@@](C)([C@@H]1OC)n1c3ccccc3c3c4c(c5c6ccccc6n2c5c31)C(=O)NC4 [staurosporine] (assay: log2 fold change of tryptic peptide abundance, ligand vs vehicle (limited proteolysis) (log2 ratio); higher = more trypsin-susceptible (destabilized)). Details: ligand concentration: 20 uM; sample: mouse liver crude lysate; replicate design: treated separately.

Target	log2 fold change
UniProt O09131 (peptide sequence: EALENEFKK, peptide start residue: 144)	0.655
UniProt O08914 (peptide sequence: AGLETMDK, peptide start residue: 50)	0.15
UniProt E9Q7G0 (peptide sequence: TDAPGPELQALR, peptide start residue: 1111)	0.181
UniProt O08582 (peptide sequence: GGQTASFALK, peptide start residue: 457)	0.34
UniProt B9EJ80 (peptide sequence: DLPSESSAPTK, peptide start residue: 653)	0.294
UniProt O35400 (peptide sequence: KGISGDWK, peptide start residue: 258)	-0.0127
UniProt O35453 (peptide sequence: AKEDEEPGAHR, peptide start residue: 2)	-0.26
UniProt O09164 (peptide sequence: EVDAAEMHAICR, peptide start residue: 67)	0.444
UniProt O09174 (peptide sequence: IVESDKLK, peptide start residue: 371)	-0.0987
UniProt O08849 (peptide sequence: MKRTLLK, peptide start residue: 33)	-0.153
UniProt O08967 (peptide sequence: GIIPLENLSIR, peptide start residue: 303)	0.0694
UniProt E9Q8D0 (peptide sequence: KLVEEQNAEK, peptide start residue: 222)	-0.324
UniProt O35445 (peptide sequence: GSQKPQDPR, peptide start residue: 83)	-0.0709
UniProt D3YWQ0 (peptide sequence: EANPEKFNSR, peptide start residue: 469)	-0.0657
UniProt D3Z338 (peptide sequence: LCLEFLAINYR, peptide start residue: 102)	0.339
UniProt O08664 (peptide sequence: KVMATIEK, peptide start residue: 20)	0.289
UniProt F8VPZ5 (peptide sequence: QQCLGAASGVPTWTGHR, peptide start residue: 1293)	0.313
UniProt E9Q3C1 (peptide sequence: GKHTMNGVPREPCI, peptide start residue: 683)	-0.331

As a working copy, part of the list above:
Target	log2 fold change
UniProt O08914 (peptide sequence: AGLETMDK, peptide start residue: 50)	0.15
UniProt E9Q7G0 (peptide sequence: TDAPGPELQALR, peptide start residue: 1111)	0.181

Further entries.

Target	log2 fold change
UniProt E9PV24 (peptide sequence: NNKDSNSLTR, peptide start residue: 99)	0.214
UniProt G3X987 (peptide sequence: YLAFNNK, peptide start residue: 164)	-0.148
UniProt E9Q5C9 (peptide sequence: KAGPYSSVPPPSVPLPK, peptide start residue: 294)	-0.284
UniProt E9Q8I9 (peptide sequence: VALESLYR, peptide start residue: 402)	0.138
UniProt E9Q942 (peptide sequence: QRRPPVDAGH, peptide start residue: 79)	-0.231
UniProt O08663 (peptide sequence: ERDDDDEDGDGDADGATGKK, peptide start residue: 80)	-0.937
UniProt O09061 (peptide sequence: LSEGFSIHTR, peptide start residue: 56)	0.278
UniProt B2RXA1 (peptide sequence: MGTICSPNPSGTK, peptide start residue: 13)	0.323
UniProt E9Q4N7 (peptide sequence: SSTVSVHDPFSDVSDSAYPKR, peptide start residue: 1288)	-0.269
UniProt E9PVA8 (peptide sequence: VLVAVLLSR, peptide start residue: 568)	0.266
UniProt O35153 (peptide sequence: LKSLALDIDRDTEDQNR, peptide start residue: 35)	-0.252
UniProt O35075 (peptide sequence: TCEFIVHSAPQK, peptide start residue: 136)	-0.155
UniProt B2RVL6 (peptide sequence: EHPQHLCEKCK, peptide start residue: 221)	-0.817
UniProt G5E8P1 (peptide sequence: LLIELLR, peptide start residue: 537)	0.275
UniProt E9Q735 (peptide sequence: EKEAGLQMFGQLAR, peptide start residue: 793)	-0.476
UniProt O35215 (peptide sequence: FFPLEAWQIGKK, peptide start residue: 100)	-0.168
UniProt O08784 (peptide sequence: LKATEAIK, peptide start residue: 1172)	-0.205
